Sequences of proteins named here, by UniProt entry; tags and fusion partners are left off.
UniProt P39081: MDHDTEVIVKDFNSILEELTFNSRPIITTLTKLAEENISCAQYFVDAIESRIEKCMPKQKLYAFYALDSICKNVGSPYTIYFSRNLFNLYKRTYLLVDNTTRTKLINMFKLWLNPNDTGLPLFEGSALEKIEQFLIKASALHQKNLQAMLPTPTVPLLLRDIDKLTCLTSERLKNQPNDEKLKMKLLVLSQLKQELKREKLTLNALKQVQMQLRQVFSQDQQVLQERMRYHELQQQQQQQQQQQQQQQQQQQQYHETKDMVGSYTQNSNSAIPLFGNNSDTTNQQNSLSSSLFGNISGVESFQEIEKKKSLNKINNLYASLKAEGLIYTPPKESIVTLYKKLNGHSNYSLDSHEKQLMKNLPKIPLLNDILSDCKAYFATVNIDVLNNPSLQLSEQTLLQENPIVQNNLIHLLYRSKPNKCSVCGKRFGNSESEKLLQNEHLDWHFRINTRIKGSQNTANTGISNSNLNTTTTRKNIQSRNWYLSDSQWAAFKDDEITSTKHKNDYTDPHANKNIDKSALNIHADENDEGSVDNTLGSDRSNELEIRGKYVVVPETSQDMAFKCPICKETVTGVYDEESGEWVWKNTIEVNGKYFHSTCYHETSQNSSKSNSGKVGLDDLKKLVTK

In PMC11354755:

T1: TFIIB sua7-1 mutant (E62K) (S. cerevisiae) (UniProt P29055)
T1 sequence: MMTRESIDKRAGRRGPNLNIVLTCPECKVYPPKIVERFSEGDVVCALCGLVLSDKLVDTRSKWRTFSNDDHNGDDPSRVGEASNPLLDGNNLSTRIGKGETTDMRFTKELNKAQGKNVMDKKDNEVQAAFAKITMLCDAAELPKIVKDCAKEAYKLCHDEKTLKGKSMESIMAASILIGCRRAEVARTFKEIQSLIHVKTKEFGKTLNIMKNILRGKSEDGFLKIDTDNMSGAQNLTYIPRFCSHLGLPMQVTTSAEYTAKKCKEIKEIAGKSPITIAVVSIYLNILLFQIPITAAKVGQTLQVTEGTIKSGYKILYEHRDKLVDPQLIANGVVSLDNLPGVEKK

B1: Clp1 (protein, UniProt Q08685 1-445)
chain: MASLPGIDEHTTSEELITGDNEWHKLVIPKGSDWQIDLKAEGKLIVKVNSGIVEIFGTELAVDDEYTFQNWKFPIYAVEETELLWKCPDLTTNTITVKPNHTMKYIYNLHFMLEKIRMSNFEGPRVVIVGGSQTGKTSLSRTLCSYALKFNAYQPLYINLDPQQPIFTVPGCISATPISDILDAQLPTWGQSLTSGATLLHNKQPMVKNFGLERINENKDLYLECISQLGQVVGQRLHLDPQVRRSGCIVDTPSISQLDENLAELHHIIEKLNVNIMLVLCSETDPLWEKVKKTFGPELGNNNIFFIPKLDGVSAVDDVYKRSLQRTSIREYFYGSLDTALSPYAIGVDYEDLTIWKPSNVFDNEVGRVELFPVTITPSNLQHAIIAITFAERRADQATVIKSPILGFALITEVNEKRRKLRVLLPVPGRLPSKAMILTSYRYLE
B2: Rna14 (protein, UniProt P25298 1-677)
chain: MSSSTTPDLLYPSADKVAEPSDNIHGDELRLRERIKDNPTNILSYFQLIQYLETQESYAKVREVYEQFHNTFPFYSPAWTLQLKGELARDEFETVEKILAQCLSGKLENNDLSLWSTYLDYIRRKNNLITGGQEARAVIVKAFQLVMQKCAIFEPKSSSFWNEYLNFLEQWKPFNKWEEQQRIDMLREFYKKMLCVPFDNLEKMWNRYTQWEQEINSLTARKFIGELSAEYMKARSLYQEWLNVTNGLKRASPINLRTANKKNIPQPGTSDSNIQQLQIWLNWIKWERENKLMLSEDMLSQRISYVYKQGIQYMIFSAEMWYDYSMYISENSDRQNILYTALLANPDSPSLTFKLSECYELDNDSESVSNCFDKCTQTLLSQYKKIASDVNSGEDNNTEYEQELLYKQREKLTFVFCVYMNTMKRISGLSAARTVFGKCRKLKRILTHDVYVENAYLEFQNQNDYKTAFKVLELGLKYFQNDGVYINKYLDFLIFLNKDSQIKTLFETSVEKVQDLTQLKEIYKKMISYESKFGNLNNVYSLEKRFFERFPQENLIEVFTSRYQIQNSNLIKKLELTYMYNEEEDSYFSSGNGDGHHGSYNMSSSDRKRLMEETGNNGNFSNKKFKRDSELPTEVLDLLSVIPKRQYFNTNLLDAQKLVNFLNDQVEIPTVESTKSG
B3: Rna15 (protein, UniProt P25299 1-296)
chain: MNRQSGVNAGVQNNPPSRVVYLGSIPYDQTEEQILDLCSNVGPVINLKMMFDPQTGRSKGYAFIEFRDLESSASAVRNLNGYQLGSRFLKCGYSSNSDISGVSQQQQQQYNNINGNNNNNGNNNNNSNGPDFQNSGNANFLSQKFPELPSGIDVNINMTTPAMMISSELAKKPKEVQLKFLQKFQEWTRAHPEDAVSLLELCPQLSFVTAELLLTNGICKVDDLIPLASRPQEEASATNNNSVNEVVDPAVLNKQKELLKQVLQLNDSQISILPDDERMAIWDLKQKALRGEFGAF

Target: T1, TFIIB sua7-1 mutant (E62K) (S. cerevisiae)
Experiment: affinity purification with mass spectrometry; TFIIB affinity purified from chromatin and soluble fractions of S. cerevisiae TFIIB^WT and TFIIB^sua7-1 (sua7-1-HA, WA158) cells; quantitative proteomics, TFIIB-normalized spectral abundance factor (BNSAF); four replicates

Molecule | binding
Pcf11 (from UniProt P39081 1-626) | binds
B1 | binds
B2 | binds
B3 | binds

No constants are given. Whether binding was seen depends on the method and setting. In cells and extracts the contact can be indirect. These calls come from enrichment with a bait or labelling near it, and not all partners need be listed.
